How the values were obtained:
[1] = tested on: serum antibodies elicited by M-KLH; test: Competition ELISA of serum from rats vaccinated with M-KLH
[2] = tested on: serum antibodies elicited by OXY-KLH; test: Competition ELISA of serum from rats vaccinated with OXY-KLH
Anti-OXY antibodies = test: Competitive ELISA of serum from animals immunized with OXY(Gly)4-KLH, OXY(Gly)4-OVA as coating antigen; format: binding, rat
Procedure: Because plateau values differed, IC50 values for each inhibitor were calculated based on the percentage of inhibition of the optical density of primary antibodies incubated with saline.

CN1CC[C@]23c4c5ccc(O)c4O[C@H]2[C@@H](O)C=C[C@H]3[C@H]1C5 [Morphine]
relative affinity of antiserum / cross-reactivity (in words) [1]: high relative affinities
relative affinity of antiserum / cross-reactivity (in words) [2]: low relative affinity
IC50 (Anti-OXY antibodies): 20 µM
